The target of data set [1] is EPAS1 lacking transactivation domain (dominant negative) del486-639 or del486-690 (Homo sapiens) (UniProt Q99814). In words: binding assay. As to conditions: retained heterodimer formation and binding to HIF-1 site; method not stated; cited from earlier work.
The test system of data set [2] is EPAS1 basic region deletion deletion of basic (bHLH) region SEQ ID NO:3 (Homo sapiens). In words: activity in cells. As to conditions: VEGF promoter reporter; activation completely abolished; protein in cells; only the site is given.

Chains of the proteins cited; added tags and fusions are not shown. Lines headed by an entry give the natural chain unless they say otherwise; changes in a name come on top.
UniProt Q99814: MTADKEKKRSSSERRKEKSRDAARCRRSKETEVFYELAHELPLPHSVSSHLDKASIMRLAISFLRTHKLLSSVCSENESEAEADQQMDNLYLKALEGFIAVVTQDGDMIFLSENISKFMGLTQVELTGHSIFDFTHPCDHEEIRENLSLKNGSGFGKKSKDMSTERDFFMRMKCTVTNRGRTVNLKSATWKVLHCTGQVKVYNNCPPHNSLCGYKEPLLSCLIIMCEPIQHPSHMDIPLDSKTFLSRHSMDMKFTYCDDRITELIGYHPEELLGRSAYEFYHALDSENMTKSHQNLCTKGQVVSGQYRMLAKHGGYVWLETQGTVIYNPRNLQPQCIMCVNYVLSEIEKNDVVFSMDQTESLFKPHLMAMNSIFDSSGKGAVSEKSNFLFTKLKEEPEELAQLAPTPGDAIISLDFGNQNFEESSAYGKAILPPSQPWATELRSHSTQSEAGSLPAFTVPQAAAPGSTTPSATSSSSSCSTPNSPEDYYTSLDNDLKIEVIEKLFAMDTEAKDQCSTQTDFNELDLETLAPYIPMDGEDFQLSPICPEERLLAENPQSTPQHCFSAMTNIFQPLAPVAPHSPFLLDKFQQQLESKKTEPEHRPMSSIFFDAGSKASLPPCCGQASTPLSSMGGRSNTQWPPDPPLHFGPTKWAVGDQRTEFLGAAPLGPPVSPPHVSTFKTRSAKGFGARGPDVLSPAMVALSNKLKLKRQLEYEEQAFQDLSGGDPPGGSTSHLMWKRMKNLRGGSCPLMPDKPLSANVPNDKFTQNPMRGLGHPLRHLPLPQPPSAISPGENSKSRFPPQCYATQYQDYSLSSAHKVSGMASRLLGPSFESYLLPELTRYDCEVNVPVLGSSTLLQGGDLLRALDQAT

Construct, isoform or probe ends are uncertain for at least one entry. For some assays here: Negatives hold for the conditions tested.

For GCCCTACGTGCTGTCTCA (double strand), the binding result in data set [1] is “binds”. Moreover, in data set [2], the “activity on this sequence” value is recorded as “not active”.

The record behind these values is US6395548.
